From PubChem BioAssay AID743266 (National Center for Advancing Translational Sciences (NCATS), 2014)
Out of some 410,000 compounds screened, about 310 (0.076%) were called active. Inconclusive means that the source gave no clear call. Such entries were picked first, then a sample of the others. Calls follow the shape of the dose curve; as a rule, active = well fitted activation curve with a large enough effect; inconclusive = small, poorly fitted or top-dose-only effect, or another doubt; inactive = no such curve, though single readings can be large or run the other way. Potencies beside an inconclusive call are fits to weak or partial responses and may not hold up.

Sequences of proteins named here, by UniProt entry; tags and fusion partners are left off. A change or cut given only in a name is not applied to a line headed by its entry.
UniProt Q03431: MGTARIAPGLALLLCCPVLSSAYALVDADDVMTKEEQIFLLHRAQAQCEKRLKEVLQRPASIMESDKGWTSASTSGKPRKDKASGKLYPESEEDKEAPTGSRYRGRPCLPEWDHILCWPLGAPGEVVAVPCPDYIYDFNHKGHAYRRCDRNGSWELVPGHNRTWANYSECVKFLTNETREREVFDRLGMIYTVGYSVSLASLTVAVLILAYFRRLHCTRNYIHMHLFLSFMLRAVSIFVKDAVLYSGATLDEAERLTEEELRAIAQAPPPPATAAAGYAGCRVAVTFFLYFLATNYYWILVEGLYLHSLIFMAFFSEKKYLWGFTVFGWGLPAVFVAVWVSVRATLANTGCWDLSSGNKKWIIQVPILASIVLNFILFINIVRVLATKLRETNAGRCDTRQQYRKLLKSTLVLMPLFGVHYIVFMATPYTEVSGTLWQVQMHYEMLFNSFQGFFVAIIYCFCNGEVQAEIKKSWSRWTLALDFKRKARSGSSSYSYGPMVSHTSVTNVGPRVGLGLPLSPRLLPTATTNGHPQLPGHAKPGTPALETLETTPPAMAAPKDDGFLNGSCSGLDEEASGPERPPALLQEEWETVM

What follows are compounds tested against Parathyroid hormone/parathyroid hormone-related peptide receptor (Homo sapiens) (UniProt Q03431) (assay: qHTS for PTHR1 Agonists: Primary Screen). Details: HEK293 GP2 PTHR1 cells, GloSensor cAMP luminescence, 1 h; activation: at 115 µM (top of the series) unless noted; series mostly up to 115 µM.
Summary of the method: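 HEK-293-derived GP2 cells expressing PTHR1 and a GloSensor cAMP reporter, 3,000/well, plated overnight, given luciferin plus IBMX (each 0.5 mM as added) for 1 h at 37 °C, then compound for 1 h at 37 °C. Luminescence was read after 15 min at room temperature.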
Also: nearly all actives have a fitted effect of over 55% in size.
Potency is read from the fitted curve at half-maximal effect.

Row | SMILES | outcome | Potency | activation
1 | CCn1cc(CN2CCN(Cc3ccc(C)o3)C(CCO)C2)c2ccccc21 (configuration not stated) | inactive |  | 
2 | CC(C)(O)CC[C@@H](O)[C@](C)(O)C1CC[C@@]2(O)C3=CC(=O)[C@]4(O)C[C@@H](O)[C@@H](O)C[C@]4(C)C3CC[C@]12C (some centres not stated) |  | inconclusive: 100 µM [activator, single point] | 
3 | Cc1[nH]c(=S)c(C#N)c(C)c1CC(=O)c1ccc(Br)cc1 |  | active: 14.1 µM | 
4 | O=C1NC[C@H](CCCCN2C[C@H](Cc3ccc(O)cc3)N(Cc3ccccc3)C(=O)C2=O)N(CC2CCCCC2)C1=O |  | inconclusive: 141 µM [activator, single point] | 
5 | CCC(=O)c1c[nH]c(C(=O)NCc2cccnc2)c1 | inactive |  | 
6 | Cc1cccc(Cn2c(CN3CCCC(C)C3)nc3c2c(=O)n(C)c(=O)n3C)c1 (configuration not stated) |  | inconclusive: 126 µM [activator, single point] | 
7 | Cc1ccc2[nH]c3c(c2c1)CCN(C)C3 |  | inconclusive: 39.8 µM [activator, partial curve, poor fit] | 
8 | Cc1ccc(S(=O)(=O)N/N=C/c2cnn(C)c2C)cc1 |  | inconclusive: 35.5 µM [activator, single point] | 
9 | Cc1cccc(NC(=O)Cn2cnc3sc(C)c(S(=O)(=O)N4CCC(C)CC4)c3c2=O)n1 | inactive |  | 
10 | Cc1[nH]n(-c2ccccc2)c(=O)c1C=Nc1ccc(S(=O)(=O)Nc2nccs2)cc1 |  |  | inconclusive: -11.7% [activator]
11 | CC(C)(C)OC(=O)Nc1ncnc2c1ncn2C1OC(CO)C2OC(C)(C)OC21 (configuration not stated) |  | inconclusive: 14.1 µM [activator, partial curve, poor fit] | 
12 | O=C1C2CCCCN2C(=O)N1CCN1CCN(c2ccc([N+](=O)[O-])cc2)CC1 (configuration not stated) |  |  | inconclusive: -35.9% [activator] [at 57.5 µM]
13 | CCC1CCCCN1C(=O)COc1ccc(N(C)S(=O)(=O)c2ccc(C)cc2)cc1 (configuration not stated) |  |  | inactive: -4.06%
14 | O=C(CSCC(=O)OCn1nnc2ccccc2c1=O)Nc1ccc(Cl)cc1 |  | inconclusive: 44.7 µM [activator, partial curve, poor fit] | 
15 | CCNC(=O)C1CCCN(C(=O)c2cccc(OC(F)(F)F)c2)CC1 (configuration not stated) |  |  | inactive: -15.8%
16 | Cc1ccc(/C=N/N2CCCCC2)o1 |  |  | inconclusive: 17.3% [activator]
17 | CC(C)C[C@@H](CN1CCC[C@H]1CN1C(=O)C(=O)NC[C@@H]1Cc1ccc(O)cc1)N1C[C@H](Cc2ccc(O)cc2)N(CCc2ccccc2)C(=O)C1=O |  |  | inconclusive: 33.5% [activator]
18 | CC(=O)Nc1ccc(NC(=O)/C=C/c2ccc(Cl)cc2)cc1 |  |  | inactive: -22%
19 | Cc1onc(-c2ccccc2)c1C(=O)NCCc1ccncc1 |  | inconclusive: 1.41 µM [activator, partial curve, poor fit] | 
20 | CCN(CC)C1=C(Cl)C(=O)C(Cl)C12OCCO2 (configuration not stated) | inactive |  | 
21 | COc1cc([N+](=O)[O-])ccc1NC(=O)C[n+]1ccccc1 |  | inconclusive: 79.4 µM [activator, partial curve, poor fit] | 

Complete entries, looked up by structure:
`CCNC(=O)C1CCCN(C(=O)c2cccc(OC(F)(F)F)c2)CC1` (configuration not stated) in the list: activation: inactive: -15.8%
`Cc1[nH]n(-c2ccccc2)c(=O)c1C=Nc1ccc(S(=O)(=O)Nc2nccs2)cc1` in the list: activation: inconclusive: -11.7% [activator]
`Cc1ccc2[nH]c3c(c2c1)CCN(C)C3` in the list: Potency: inconclusive: 39.8 µM [activator, partial curve, poor fit]

Additional compounds.

Row | SMILES | outcome | Potency | activation
22 | CC1(C)CC(=O)C=C(NCc2cccs2)C1 |  | inconclusive: 12.6 µM [activator, partial curve, poor fit] | 
23 | ONC(=Nc1cccc(C(F)(F)F)c1)c1cccnc1 | inactive |  | 
24 | CCN(CC)S(=O)(=O)c1ccc2[nH]cc(C(=O)NCCCN3CCCCC3)c(=O)c2c1 |  | inconclusive: 126 µM [activator, single point] | 
25 | CC(=O)Nc1nc(SCC(=O)NCC2CCCO2)[nH]c(=O)c1NC(=O)c1cccs1 (configuration not stated) |  | inconclusive: 112 µM [activator, single point] | 
26 | COc1ccc(N(CC(=O)Nc2cccc3ccccc23)S(C)(=O)=O)cc1 |  | inconclusive: 100 µM [activator, single point] | 
27 | COc1cc(C(O)c2nc(-c3ccccc3C)cs2)ccc1F (configuration not stated) |  |  | inactive: -5.01%
28 | O=C(OCc1nnc(-c2ccccc2)o1)C1CC(=O)N(CCc2ccccc2)C1 (configuration not stated) |  | inconclusive: 35.5 µM [activator, partial curve, poor fit] | 
29 | CCOc1ccccc1CNC(=O)C1CCN(S(=O)(=O)N2CCC(C)CC2)CC1 |  |  | inactive: -19.5%
30 | Cn1c(-c2ccccc2[N+](=O)[O-])[n+](C)c2ccccc21 |  | inconclusive: 70.8 µM [activator, partial curve, poor fit] | 
31 | CC(C)C[C@H]1CN([C@@H](Cc2ccccc2)CN2CCC[C@@H]2CN2C(=O)C(=O)NC[C@@H]2Cc2ccc(O)cc2)C(=O)C(=O)N1CC1CCCCC1 |  |  | inconclusive: 37.4% [activator]
32 | C=CCOC(=O)C1=C[C@@H](c2ccccc2)[C@H](CCCO)[C@@H](OCC)O1 |  | inconclusive: 44.7 µM [activator, partial curve, poor fit] | 
33 | CCN(CC)S(=O)(=O)c1ccc(OC)c(NC(=O)c2ccc(=O)[nH]c2)c1 |  |  | inconclusive: 36.6% [activator]
34 | O=C(O)c1ccc(N/C(=N\S(=O)(=O)c2ccc(Cl)cc2)c2ccccc2)cc1 |  |  | inconclusive: 47.7% [activator]
35 | CCOc1ccc(-c2nonc2NC(=O)COc2ccc(C)c(C)c2)cc1OCC |  |  | inactive: -18.6%
36 | CCCc1nnc(SCC(=O)N2CCCCC2C)n1CCOC (configuration not stated) |  | inconclusive: 3.55 µM [activator, full curve] | 
37 | C#CCOCCOCCOCCNc1nc(N2CCN(C(=O)Cn3cc(CCO)nn3)CC2)nc(N2CCN(C(=O)[C@H](CCCCN)n3cc(CC(C)O)nn3)CC2)n1 (some centres not stated) | inactive |  | 
38 | CCOc1ccc(CNC(=O)c2sc3nc(C)cc(C)c3c2-n2cccc2)cc1 |  |  | inconclusive: 30.4% [activator]
39 | COc1ccccc1NC(=O)CCc1nnc2ccc(N3CCC4(CC3)OCCO4)nn12 |  | inconclusive: 89.1 µM [activator, partial curve, poor fit] | 
40 | CCc1ccc(NS(=O)(=O)c2ccc3[nH]cc(C(=O)NC4CCCC4)c(=O)c3c2)cc1 |  |  | inactive: 13%
41 | CCC(Sc1ccc2nnc(-c3cccnc3)n2n1)C(=O)O (configuration not stated) |  | inconclusive: 158 µM [activator, single point] | 
42 | COc1cccc2cc(-c3nc4sc(C(=O)Nc5ccc(F)cc5F)c(C)c4c(=O)[nH]3)c(=O)oc12 |  | inconclusive: 14.1 µM [activator, full curve, poor fit] | 
